At least one structure is not confirmed: it was looked up by name or label, or the drawing left a doubt.
Test: Stability of the TA 2005 + budesonide HFA 134a composition with phosphoric acid, 40° C. and 75% relative humidity
Assay type: physicochemical
Details: TA 2005 1 μg + budesonide 200 μg/actuation, phosphoric acid 85% 0.0032 or 0.0064% w/w, 0.15% w/w water, three months
Experimental: Two compositions were tested containing TA 2005 and budesonide as active ingredients and two different concentrations of phosphoric acid.
Volume of the valve: 63 μl; strength: TA 2005 1 μg+budesonide 200 μg/actuation; no. of actuations: 120 (34 overfilling doses).
The two active ingredients in the compositions were stable after three months storage at 40° C. and 75% relative humidity, giving residual percent amounts of at least 95% TA 2005 and about 100% of Budesonide.

With `CCCC1O[C@@H]2C[C@H]3[C@@H]4CCC5=CC(=O)C=C[C@]5(C)[C@H]4[C@@H](O)C[C@]3(C)[C@]2(C(=O)CO)O1` (stereo partly shown) [Budesonide, budesonide] the residual percent amount was “about 100%”.

— patent publication US20070025920A1, “Stable Pharmaceutical Solution Formulations for Pressurized Metered Dose Inhalers” (priority 2004, published 2007)
